According to the supplement of paper PMC12595434, “Development of retinoid nuclear receptor pathway antagonists through targeting aldehyde dehydrogenase 1A3” (iScience, 2025):
The other results are listed elsewhere or left out. The data scatter; read single values as rough.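 Tm was set to 64 °C where no melting was found, and many curves are irregular.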

Protein sequences, listed by entry. Tags and fused reporters are not part of them. Lines headed by an entry give the natural chain unless they say otherwise; changes in a name come on top.
UniProt Q9NRZ7: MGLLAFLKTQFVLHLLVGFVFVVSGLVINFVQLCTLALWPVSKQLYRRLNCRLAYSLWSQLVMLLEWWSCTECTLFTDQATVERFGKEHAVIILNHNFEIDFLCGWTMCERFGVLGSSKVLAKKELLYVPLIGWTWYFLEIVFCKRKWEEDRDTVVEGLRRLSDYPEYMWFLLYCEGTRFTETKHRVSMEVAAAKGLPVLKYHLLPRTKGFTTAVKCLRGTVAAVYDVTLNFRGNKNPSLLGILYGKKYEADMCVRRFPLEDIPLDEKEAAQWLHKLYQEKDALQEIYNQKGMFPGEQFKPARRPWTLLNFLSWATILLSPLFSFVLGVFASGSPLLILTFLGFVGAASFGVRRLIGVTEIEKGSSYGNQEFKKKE
UniProt Q9HD23: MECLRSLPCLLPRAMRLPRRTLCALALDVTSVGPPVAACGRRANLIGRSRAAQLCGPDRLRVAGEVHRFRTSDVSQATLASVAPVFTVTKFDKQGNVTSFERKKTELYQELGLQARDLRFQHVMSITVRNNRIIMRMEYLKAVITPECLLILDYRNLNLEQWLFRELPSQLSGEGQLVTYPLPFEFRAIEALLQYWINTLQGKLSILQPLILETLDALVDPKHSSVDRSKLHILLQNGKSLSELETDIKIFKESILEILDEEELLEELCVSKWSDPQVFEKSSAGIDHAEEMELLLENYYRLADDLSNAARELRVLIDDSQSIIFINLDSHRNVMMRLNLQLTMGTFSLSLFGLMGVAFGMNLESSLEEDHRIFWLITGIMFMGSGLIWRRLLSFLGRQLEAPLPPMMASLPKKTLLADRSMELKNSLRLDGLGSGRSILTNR
UniProt Q9NR30: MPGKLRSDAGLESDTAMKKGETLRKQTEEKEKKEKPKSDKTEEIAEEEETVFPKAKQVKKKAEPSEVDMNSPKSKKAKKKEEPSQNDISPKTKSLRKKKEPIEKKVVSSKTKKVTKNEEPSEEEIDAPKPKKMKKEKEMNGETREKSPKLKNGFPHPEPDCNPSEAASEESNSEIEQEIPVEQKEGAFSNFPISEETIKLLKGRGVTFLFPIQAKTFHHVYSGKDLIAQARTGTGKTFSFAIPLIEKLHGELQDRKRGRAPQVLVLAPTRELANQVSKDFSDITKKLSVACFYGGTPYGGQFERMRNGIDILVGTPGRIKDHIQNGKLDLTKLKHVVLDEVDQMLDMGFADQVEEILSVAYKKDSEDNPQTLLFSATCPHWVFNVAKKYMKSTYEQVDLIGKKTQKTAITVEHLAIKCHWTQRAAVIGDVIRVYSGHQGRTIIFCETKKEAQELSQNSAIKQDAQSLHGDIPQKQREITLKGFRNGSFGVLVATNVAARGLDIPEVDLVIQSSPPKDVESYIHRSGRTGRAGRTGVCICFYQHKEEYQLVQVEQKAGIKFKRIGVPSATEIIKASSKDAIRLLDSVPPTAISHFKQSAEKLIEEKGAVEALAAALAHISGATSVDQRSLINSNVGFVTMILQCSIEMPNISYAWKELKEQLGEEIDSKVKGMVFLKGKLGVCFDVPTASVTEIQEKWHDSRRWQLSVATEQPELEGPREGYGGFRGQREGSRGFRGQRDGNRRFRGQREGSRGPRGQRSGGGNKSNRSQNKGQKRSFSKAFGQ
UniProt Q9NP61: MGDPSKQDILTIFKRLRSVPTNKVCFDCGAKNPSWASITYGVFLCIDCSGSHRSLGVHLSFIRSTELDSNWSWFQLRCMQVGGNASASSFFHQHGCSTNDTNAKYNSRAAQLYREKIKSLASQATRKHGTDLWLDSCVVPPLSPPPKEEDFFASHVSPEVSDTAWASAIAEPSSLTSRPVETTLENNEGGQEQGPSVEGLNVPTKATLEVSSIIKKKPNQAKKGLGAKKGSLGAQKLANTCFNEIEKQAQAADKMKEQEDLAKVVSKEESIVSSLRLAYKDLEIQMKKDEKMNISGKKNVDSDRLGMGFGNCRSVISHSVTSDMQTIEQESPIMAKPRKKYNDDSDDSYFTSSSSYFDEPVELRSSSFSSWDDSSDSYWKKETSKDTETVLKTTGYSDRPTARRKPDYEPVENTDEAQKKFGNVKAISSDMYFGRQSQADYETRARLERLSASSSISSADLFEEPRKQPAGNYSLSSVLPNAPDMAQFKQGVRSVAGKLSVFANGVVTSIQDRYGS
UniProt Q9HA65: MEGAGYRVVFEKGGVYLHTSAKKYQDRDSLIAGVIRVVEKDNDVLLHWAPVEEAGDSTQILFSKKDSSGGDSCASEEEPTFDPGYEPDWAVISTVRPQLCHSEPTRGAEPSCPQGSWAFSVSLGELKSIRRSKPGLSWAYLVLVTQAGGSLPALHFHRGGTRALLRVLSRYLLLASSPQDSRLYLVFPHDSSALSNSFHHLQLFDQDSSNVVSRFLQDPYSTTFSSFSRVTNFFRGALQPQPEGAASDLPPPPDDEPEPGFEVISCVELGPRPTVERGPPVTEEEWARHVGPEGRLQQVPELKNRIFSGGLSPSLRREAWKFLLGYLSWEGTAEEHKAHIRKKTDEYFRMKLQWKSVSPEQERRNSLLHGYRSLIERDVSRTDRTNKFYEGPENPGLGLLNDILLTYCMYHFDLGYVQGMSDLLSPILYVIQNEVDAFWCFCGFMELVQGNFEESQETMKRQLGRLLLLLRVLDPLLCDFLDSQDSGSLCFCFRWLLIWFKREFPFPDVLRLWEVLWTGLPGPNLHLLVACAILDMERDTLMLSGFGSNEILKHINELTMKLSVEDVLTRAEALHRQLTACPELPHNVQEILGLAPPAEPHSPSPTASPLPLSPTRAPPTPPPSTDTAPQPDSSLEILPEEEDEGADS
UniProt Q9NVE5: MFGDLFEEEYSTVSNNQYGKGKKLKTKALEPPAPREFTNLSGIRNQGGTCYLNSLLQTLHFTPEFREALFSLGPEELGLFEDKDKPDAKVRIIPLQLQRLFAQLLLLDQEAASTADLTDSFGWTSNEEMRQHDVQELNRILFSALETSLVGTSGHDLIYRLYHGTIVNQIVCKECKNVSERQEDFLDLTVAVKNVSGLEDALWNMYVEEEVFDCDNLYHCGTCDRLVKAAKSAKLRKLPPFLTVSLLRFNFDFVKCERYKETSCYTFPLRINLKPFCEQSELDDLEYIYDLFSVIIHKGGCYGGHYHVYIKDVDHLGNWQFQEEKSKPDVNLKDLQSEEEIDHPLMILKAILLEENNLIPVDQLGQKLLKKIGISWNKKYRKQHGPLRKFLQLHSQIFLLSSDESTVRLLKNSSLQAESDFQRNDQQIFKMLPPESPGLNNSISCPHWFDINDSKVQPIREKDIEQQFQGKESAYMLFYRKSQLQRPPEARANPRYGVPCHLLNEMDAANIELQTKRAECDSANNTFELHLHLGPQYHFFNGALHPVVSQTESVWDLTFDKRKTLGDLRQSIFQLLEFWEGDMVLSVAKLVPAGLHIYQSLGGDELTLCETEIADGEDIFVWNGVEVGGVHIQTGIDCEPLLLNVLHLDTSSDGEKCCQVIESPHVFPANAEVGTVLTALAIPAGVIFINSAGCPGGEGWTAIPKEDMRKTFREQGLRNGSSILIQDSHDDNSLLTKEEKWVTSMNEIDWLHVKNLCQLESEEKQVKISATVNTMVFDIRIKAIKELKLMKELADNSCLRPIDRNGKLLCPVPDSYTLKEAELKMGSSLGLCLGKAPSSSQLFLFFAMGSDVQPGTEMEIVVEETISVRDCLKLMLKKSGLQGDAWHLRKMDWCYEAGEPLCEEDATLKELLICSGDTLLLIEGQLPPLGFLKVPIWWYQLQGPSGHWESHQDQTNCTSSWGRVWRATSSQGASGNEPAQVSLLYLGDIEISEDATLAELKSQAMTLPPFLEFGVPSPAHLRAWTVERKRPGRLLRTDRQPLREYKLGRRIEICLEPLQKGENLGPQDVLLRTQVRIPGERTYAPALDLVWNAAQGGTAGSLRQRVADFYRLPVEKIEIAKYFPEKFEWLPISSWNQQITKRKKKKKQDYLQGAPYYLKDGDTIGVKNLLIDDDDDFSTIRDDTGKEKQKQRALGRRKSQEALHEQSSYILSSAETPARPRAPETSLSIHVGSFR
UniProt Q9NQR4: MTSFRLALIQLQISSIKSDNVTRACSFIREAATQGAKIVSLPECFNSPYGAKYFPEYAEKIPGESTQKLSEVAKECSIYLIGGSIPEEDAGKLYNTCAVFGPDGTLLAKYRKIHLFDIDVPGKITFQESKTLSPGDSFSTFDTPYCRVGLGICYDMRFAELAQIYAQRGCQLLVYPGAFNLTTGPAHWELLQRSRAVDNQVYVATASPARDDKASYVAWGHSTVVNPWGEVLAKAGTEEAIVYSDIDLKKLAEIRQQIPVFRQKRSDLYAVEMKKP
UniProt Q9NRR5, whole entry: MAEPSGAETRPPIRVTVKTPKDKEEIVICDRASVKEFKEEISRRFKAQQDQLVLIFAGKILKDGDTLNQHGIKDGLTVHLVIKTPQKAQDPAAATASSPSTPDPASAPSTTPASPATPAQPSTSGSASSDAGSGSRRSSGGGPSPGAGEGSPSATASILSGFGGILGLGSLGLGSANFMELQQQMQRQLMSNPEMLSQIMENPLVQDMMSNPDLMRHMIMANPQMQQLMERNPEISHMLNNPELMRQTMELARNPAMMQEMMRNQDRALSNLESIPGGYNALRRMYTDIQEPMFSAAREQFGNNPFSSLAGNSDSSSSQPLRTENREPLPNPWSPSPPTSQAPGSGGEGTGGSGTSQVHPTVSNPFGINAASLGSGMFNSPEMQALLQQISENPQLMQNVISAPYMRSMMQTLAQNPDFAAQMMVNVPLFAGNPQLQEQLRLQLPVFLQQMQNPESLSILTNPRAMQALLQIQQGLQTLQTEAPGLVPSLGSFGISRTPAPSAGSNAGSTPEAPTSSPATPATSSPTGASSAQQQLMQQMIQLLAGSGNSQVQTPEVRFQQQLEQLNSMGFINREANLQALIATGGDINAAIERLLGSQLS
UniProt Q9NP90: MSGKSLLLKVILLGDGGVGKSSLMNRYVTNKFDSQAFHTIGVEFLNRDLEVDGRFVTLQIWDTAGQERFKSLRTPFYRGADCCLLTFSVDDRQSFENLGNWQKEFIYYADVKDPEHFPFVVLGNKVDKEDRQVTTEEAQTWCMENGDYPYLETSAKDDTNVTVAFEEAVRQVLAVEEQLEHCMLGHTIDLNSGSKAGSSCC
UniProt Q9NSD9: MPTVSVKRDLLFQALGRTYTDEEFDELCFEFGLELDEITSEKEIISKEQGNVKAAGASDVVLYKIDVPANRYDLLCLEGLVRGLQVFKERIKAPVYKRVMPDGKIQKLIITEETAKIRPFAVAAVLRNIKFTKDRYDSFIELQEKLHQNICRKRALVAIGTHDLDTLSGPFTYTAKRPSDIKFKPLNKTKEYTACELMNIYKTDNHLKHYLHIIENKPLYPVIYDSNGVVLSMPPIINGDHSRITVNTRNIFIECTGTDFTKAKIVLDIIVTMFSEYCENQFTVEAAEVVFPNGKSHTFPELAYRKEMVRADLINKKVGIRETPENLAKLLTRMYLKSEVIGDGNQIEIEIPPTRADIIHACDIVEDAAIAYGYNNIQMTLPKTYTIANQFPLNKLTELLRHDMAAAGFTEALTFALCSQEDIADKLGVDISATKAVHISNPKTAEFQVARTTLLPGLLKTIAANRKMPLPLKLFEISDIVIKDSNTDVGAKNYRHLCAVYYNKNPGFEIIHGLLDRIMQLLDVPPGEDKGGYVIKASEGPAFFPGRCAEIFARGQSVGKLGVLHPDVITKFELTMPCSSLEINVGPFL
UniProt Q9HDC9: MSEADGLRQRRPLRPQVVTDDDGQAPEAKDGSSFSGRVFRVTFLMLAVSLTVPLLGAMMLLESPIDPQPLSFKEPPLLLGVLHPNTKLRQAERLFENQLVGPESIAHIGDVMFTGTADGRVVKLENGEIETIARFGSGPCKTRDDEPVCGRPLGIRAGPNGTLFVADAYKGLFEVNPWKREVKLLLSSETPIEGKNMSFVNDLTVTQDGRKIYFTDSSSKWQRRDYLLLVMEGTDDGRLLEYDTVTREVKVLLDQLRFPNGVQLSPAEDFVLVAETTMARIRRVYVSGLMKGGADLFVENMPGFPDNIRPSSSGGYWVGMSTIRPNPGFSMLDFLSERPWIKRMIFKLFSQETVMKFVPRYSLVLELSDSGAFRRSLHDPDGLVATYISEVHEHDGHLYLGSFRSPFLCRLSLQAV
UniProt Q9NTK5, whole entry, looked up: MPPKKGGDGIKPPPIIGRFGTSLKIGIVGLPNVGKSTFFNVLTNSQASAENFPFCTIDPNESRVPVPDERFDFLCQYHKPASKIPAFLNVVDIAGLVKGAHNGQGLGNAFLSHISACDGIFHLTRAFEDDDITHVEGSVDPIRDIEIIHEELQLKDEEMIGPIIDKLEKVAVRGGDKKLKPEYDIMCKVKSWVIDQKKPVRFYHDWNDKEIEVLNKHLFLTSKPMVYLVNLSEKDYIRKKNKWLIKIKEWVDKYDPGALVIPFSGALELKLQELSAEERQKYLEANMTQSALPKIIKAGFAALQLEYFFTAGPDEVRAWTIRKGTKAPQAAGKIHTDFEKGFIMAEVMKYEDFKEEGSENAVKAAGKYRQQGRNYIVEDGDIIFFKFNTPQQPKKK

Compound: CCc1cnccc1C(=O)Nc1cc2c(cc1F)NC(=O)CC2
Experiment: melting temperature shift (DMSO Tm minus MBE1-treated Tm) in cellular thermal proteome profiling; higher = less thermal stabilization by MBE1 (negative = stabilized by MBE1)
Conditions: A375

| Target | melting temperature shift (MBE1 concentration: 100 nM) [°C] | melting temperature shift (MBE1 concentration: 1 uM) [°C] |
| --- | --- | --- |
| AGPAT3 (UniProt Q9NRZ7) | -0.54 | 0.91 |
| UniProt Q9NRH1 | -1.05 | -0.496 |
| C12ORF10 (UniProt Q9HB07) | -1.51 | -0.122 |
| POLE3 (UniProt Q9NRF9) | 0.519 | 0.788 |
| MRS2 (UniProt Q9HD23) | 1.23 | -0.617 |
| PREB (UniProt Q9HCU5) | -0.396 | 0.649 |
| NANS (UniProt Q9NR45) | -0.413 | 0.427 |
| DDX21 (UniProt Q9NR30) | -0.668 | -0.372 |
| UniProt Q9NQ66 | 0.11 | 0.0366 |
| ARFGAP3 (UniProt Q9NP61) | 0.0733 | 0.745 |
| UniProt Q9NSG2 | -0.583 | -0.378 |
| TBC1D17 (UniProt Q9HA65) | 0.58 | -0.305 |
| UniProt Q9NVE5 | -0.551 | -1.61 |
| METTL14 (UniProt Q9HCE5) | -1.02 | 0.0733 |
| XPNPEP1 (UniProt Q9NQW7) | 0.0672 | 0.336 |
| NIT2 (UniProt Q9NQR4) | -1.05 | -0.684 |
| UBQLN4 (UniProt Q9NRR5) | -2.18 | -3.15 |
| PLGRKT (UniProt Q9HBL7) | -6.51 | 2.11 |
| UniProt Q9NP90 | 1.75 | 1.52 |
| SSU72 (UniProt Q9NP77) | -0.737 | -0.644 |
| FARSB (UniProt Q9NSD9) | 0.293 | 0.0855 |
| APMAP (UniProt Q9HDC9) | -0.579 | -1.77 |
| RTN4 (UniProt Q9NQC3) | -2.49 | -0.744 |
| OLA1 (UniProt Q9NTK5) | -0.11 | 0.153 |
| CWC22 (UniProt Q9HCG8) | -0.0192 | -0.282 |
